Data taken from PubChem BioAssay AID1259415 (National Center for Advancing Translational Sciences (NCATS), 2018).
Screen size: about 410,000 compounds; about 18,000 (4.4%) were called active. Inconclusive means that the source gave no clear call. Such entries were picked first, then a sample of the others. Cut-off read from the data, not from the text of the source: active = activity change below about -60%; inconclusive = no clear call, values can overlap the other calls; inactive = above about -39%.

assay: qHTS Assay for inhibitors of the human cytomegalovirus (HCMV); conditions: HFF cells, HCMV-luciferase reporter, 72 h; at 57.5 µM; hits give low values
How it was run: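 HFF cells seeded 16 h at 37C, treated with compounds, infected with luciferase-reporter HCMV at MOI 1 PFU/cell; luciferase read at 72 h post infection, normalized to buffer-only and Salinomycin controls.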
% is set by controls: 0 for no effect and ±100 for the full control effect.

Structure (SMILES) | activity change, negative = inhibition
COc1cc(OC)cc(C(=O)Nc2nc(CC(=O)NCCc3ccccc3)cs2)c1 | inactive: -2.48%
C[N+]1(C)CC2=Cc3ccccc3CC2C1 (stereo not drawn) | inconclusive: -40.7%
O=Cc1cccc(Oc2ccc([N+](=O)[O-])cc2[N+](=O)[O-])c1 | inconclusive: -53.7%
O=C(c1ccc(Cl)cc1)N1CCN(c2ccc(F)cc2)CC1 | inconclusive: -46.6%
COc1cc2[nH]c(=S)nc(NCc3ccc(Cl)cc3)c2cc1OC | inconclusive: -53.9%
O=[N+]([O-])c1ccc(-c2ccccc2)c([As](=O)(O)O)c1 | active: -90.7%
COCCCn1c(=N)c(C(=O)NC2CCCC2)cc2c(=O)n3ccccc3nc21 | inconclusive: -40.3%
Cc1ccc(C(=O)Nc2ccc(C(F)(F)F)n(C)c2=O)cc1 | inactive: 78.4%
CCN(CC)S(=O)(=O)c1ccc(OC)c(NC(=O)CCS(=O)(=O)Cc2ccccc2)c1 | active: -69%
COc1ccc(/C(C)=N/NC(=O)c2nnn(-c3nonc3N)c2CN(C)c2ccccc2)cc1 | inconclusive: -41.6%
Cc1ccc(CCNC(=O)CCSCc2ccc(Cl)cc2)cc1 | inconclusive: -41.7%
O=C(NC1CCCCC1)C1CCC(=O)N(Cc2cccc(C(F)(F)F)c2)C1 (stereo not drawn) | active: -60.6%
CCCCOc1ccc(C(=O)Nc2ccc3c(c2)CCCN3S(=O)(=O)c2ccc(C)cc2)cc1 | inconclusive: -44.2%
CC(C)NC(=O)c1cc(-c2cccs2)on1 | inactive: -2.36%
Cc1cc(NC(=O)CSc2cn(CC(=O)N(C(C)C)C(C)C)c3ccccc23)no1 | inactive: -33.5%
NS(=O)(=O)c1ccc(N2N=C(c3ccccc3)CC2c2ccccc2Cl)cc1 (stereo not drawn) | inconclusive: -53.3%
CC(=O)c1cccc(NC(=O)CCC(=O)Oc2ccc(C)cc2)c1 | inconclusive: -41.5%
COc1ccc(CC(=O)N2CCc3cc(OC)c(OC)cc3C2)cc1 | inactive: -4.95%
CN(C)CCN(C)Cc1c2ccccc2c(CN(C)CCN(C)C)c2ccccc12 | inconclusive: -48.3%
CC(C)c1ccc(Oc2cccc3c2S(=O)(=O)N([C@H](C)c2ccccc2)C[C@@H](COCc2ccccc2)O3)cc1 | inconclusive: -55.5%
CCCCOc1ccc(/C=c2\sc3ncnn3c2=O)cc1 | inactive: 12.5%
O=C(CCC1CCCN(C(=O)c2ccco2)C1)NCc1ccccc1F (stereo not drawn) | inactive: 47.6%

Some of the entries above, reformatted:
Structure (SMILES),"activity change, negative = inhibition"
COc1cc(OC)cc(C(=O)Nc2nc(CC(=O)NCCc3ccccc3)cs2)c1,inactive: -2.48%
C[N+]1(C)CC2=Cc3ccccc3CC2C1 (stereo not drawn),inconclusive: -40.7%
O=Cc1cccc(Oc2ccc([N+](=O)[O-])cc2[N+](=O)[O-])c1,inconclusive: -53.7%
COc1cc2[nH]c(=S)nc(NCc3ccc(Cl)cc3)c2cc1OC,inconclusive: -53.9%
Cc1ccc(CCNC(=O)CCSCc2ccc(Cl)cc2)cc1,inconclusive: -41.7%
CC(C)NC(=O)c1cc(-c2cccs2)on1,inactive: -2.36%
COc1ccc(CC(=O)N2CCc3cc(OC)c(OC)cc3C2)cc1,inactive: -4.95%

Following part:

Structure (SMILES) | activity change, negative = inhibition
CCN(CC)S(=O)(=O)c1ccc2c(c1)N(CC(=O)NCCN1CCOCC1)C(=O)CO2 | inconclusive: -42.9%
Cc1csc(SCC(=O)Nc2ccc(Cl)cn2)n1 | inactive: 13.3%
CC(Cc1c[nH]c2ccccc12)NC(=O)OCCCl (stereo not drawn) | inconclusive: -41.7%
N#C/C=C/C(=C\Nc1ccc(Cl)cc1)S(=O)(=O)c1ccccc1 | inconclusive: -43.1%
O=C(NCCc1ccccc1)c1n[nH]c2ccccc12 | inactive: 5.4%
C=COC(=O)NC1CCc2cc(OC)c(OC)c(OC)c2-c2ccc(SC)c(=O)cc21 (stereo not drawn) | inconclusive: -56.6%
COc1ccc(Nc2nnc(SC(C(=O)Nc3cc(C)ccc3C)c3ccccc3)s2)cc1 (stereo not drawn) | active: -99.7%
Cc1cc(C)c2c(CC(=O)NC(C)C)coc2c1 | active: -61.2%
Cc1ccc(CNC(=O)Cn2ccn(-c3cc(C)cc(C)c3)c(=O)c2=O)cc1 | inconclusive: -41.9%
O=C(N/N=C/c1cc(Br)cc(Br)c1O)c1cccc(N2CCCC2=O)c1 | active: -99.1%
Cc1ccc(N(C(=O)c2ccco2)C(C(=O)NC2CCCC2)c2ccco2)c(C)c1 (stereo not drawn) | inconclusive: -59.3%
Cc1nnnn1/C(=C\c1ccccc1)C(=O)OCC(=O)N1CC2(C)CC1CC(C)(C)C2 (stereo not drawn) | active: -85.3%
C[C@@H](NC(=O)C[C@@H]1C[C@@H]2c3cc(NS(=O)(=O)c4ccc(F)cc4)ccc3O[C@@H]2[C@@H](CO)O1)c1ccccc1 | inactive: 2.4%
COc1ccc(NC(=O)c2ccc(N3C(=O)C4CC=C(C)CC4C3=O)cc2)c(OC)c1 (stereo not drawn) | inconclusive: -49.3%
COc1ccc(O)c2c(=O)c3c(OC)cc4c(c3oc12)C1C=COC1O4 (stereo not drawn) | active: -62.3%
CCCCCCCn1c(=O)c(C(=O)OC)c(N)c2ccccc21 | active: -89.3%
O=C(O)/C=C/C(=O)NNc1ccc([N+](=O)[O-])cc1 | inconclusive: -43.2%
CCOC(=O)c1ccccc1NC(=O)CSc1ccccc1 | inconclusive: -41.2%
Cc1cc(C)c(NS(=O)(=O)c2ccc3c(c2)NC(=O)CC(=O)N3)c(C)c1 | inconclusive: -42.7%
Cc1ccc(-n2c(C)nnc2SCC(=O)N2CCc3ccccc3C2)cc1 | inconclusive: -46.5%
O=C(NCc1ccccn1)c1nn(-c2ccccc2F)nc1CO | inconclusive: -54.6%
